Among the data in paper PMC5716712 are binding values, retold here.

By UniProt entry, the sequences of proteins in these tests, tags left out.
UniProt P60484: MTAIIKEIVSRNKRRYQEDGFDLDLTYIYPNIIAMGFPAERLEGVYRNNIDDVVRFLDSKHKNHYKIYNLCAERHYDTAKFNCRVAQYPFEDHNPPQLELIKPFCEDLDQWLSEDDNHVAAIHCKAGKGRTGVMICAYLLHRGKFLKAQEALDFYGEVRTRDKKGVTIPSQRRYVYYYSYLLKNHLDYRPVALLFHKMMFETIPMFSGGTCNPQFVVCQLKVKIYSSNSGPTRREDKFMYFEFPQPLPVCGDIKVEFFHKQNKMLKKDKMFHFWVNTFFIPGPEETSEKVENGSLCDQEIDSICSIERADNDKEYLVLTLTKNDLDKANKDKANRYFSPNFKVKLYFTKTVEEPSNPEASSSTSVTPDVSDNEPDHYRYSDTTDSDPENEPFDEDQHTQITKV

The target in this experiment is S-HA-PTEN (UniProt P60484). As to the kind of experiment: affinity purification with mass spectrometry; cells transfected with S-HA tagged genes, lysed in cold 0.5% NP40 buffer (pH 8.0 Tris 10 mM, NaCl 150 mM), S Tag beads 4°C overnight, washed with 0.1% NP40 buffer, SDS-PAGE and LC-MS.

No constants are given. Whether binding was seen depends on the method and setting. Binding seen in cells or lysates may run through a third protein. A yes stands for co-enrichment or nearness to the bait. Other partners may have been found.

B1: MAD1 (protein, UniProt Q9Y6D9 1-718)
chain: MEDLGENTMVLSTLRSLNNFISQRVEGGSGLDISTSAPGSLQMQYQQSMQLEERAEQIRSKSHLIQVEREKMQMELSHKRARVELERAASTSARNYEREVDRNQELLTRIRQLQEREAGAEEKMQEQLERNRQCQQNLDAASKRLREKEDSLAQAGETINALKGRISELQWSVMDQEMRVKRLESEKQELQEQLDLQHKKCQEANQKIQELQASQEARADHEQQIKDLEQKLSLQEQDAAIVKNMKSELVRLPRLERELKQLREESAHLREMRETNGLLQEELEGLQRKLGRQEKMQETLVGLELENERLLAKLQSWERLDQTMGLSIRTPEDLSRFVVELQQRELALKDKNSAVTSSARGLEKARQQLQEELRQVSGQLLEERKKRETHEALARRLQKRVLLLTKERDGMRAILGSYDSELTPAEYSPQLTRRMREAEDMVQKVHSHSAEMEAQLSQALEELGGQKQRADMLEMELKMLKSQSSSAEQSFLFSREEADTLRLKVEELEGERSRLEEEKRMLEAQLERRALQGDYDQSRTKVLHMSLNPTSVARQRLREDHSQLQAECERLRGLLRAMERGGTVPADLEAAAASLPSSKEVAELKKQVESAELKNQRLKEVFQTKIQEFRKACYTLTGYQIDITTENQYRLTSLYAEHPGDCLIFKATSPSGSKMQLLETEFSHTVGELIEVHLRRQDSIPAFLSSLTLELFSRQTVA
In the case of B1, the binding entry is on record as “binds”.
